Three molecules from WO2018095932A1 can be followed below.

Amino acid sequences for entries named in this document (tags omitted). A change or cut given only in a name is not applied to a line headed by its entry.
UniProt P11362: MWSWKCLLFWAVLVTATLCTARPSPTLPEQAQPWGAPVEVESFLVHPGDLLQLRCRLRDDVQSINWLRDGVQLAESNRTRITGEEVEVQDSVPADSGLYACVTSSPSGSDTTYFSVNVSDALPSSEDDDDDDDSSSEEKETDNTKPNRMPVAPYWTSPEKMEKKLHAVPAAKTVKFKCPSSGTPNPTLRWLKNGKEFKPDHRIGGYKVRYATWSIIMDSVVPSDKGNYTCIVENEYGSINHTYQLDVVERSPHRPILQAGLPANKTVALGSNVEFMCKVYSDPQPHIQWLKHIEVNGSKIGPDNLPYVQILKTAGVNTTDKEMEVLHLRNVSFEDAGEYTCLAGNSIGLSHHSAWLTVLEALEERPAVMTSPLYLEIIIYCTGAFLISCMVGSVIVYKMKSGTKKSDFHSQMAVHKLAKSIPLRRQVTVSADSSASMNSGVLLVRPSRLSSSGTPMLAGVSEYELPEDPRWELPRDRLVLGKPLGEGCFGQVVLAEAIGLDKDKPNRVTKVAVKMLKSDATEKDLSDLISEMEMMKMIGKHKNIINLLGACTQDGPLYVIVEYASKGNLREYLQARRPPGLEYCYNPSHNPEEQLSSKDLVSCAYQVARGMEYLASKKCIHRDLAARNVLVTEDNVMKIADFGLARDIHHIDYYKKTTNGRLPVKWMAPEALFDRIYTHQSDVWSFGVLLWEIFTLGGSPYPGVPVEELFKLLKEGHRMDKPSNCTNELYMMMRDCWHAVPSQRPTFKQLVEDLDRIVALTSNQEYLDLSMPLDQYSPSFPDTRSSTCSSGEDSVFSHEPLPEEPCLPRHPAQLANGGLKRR

In assay [1] the target is human FGFR1b-IIIb extracellular domain with a His tag (human). Briefly: SPR. For orientation: Surface plasmon resonance follows binding to a sensor surface in real time, without labels.
The target of assay [2] is human FGFR1b-IIIc extracellular domain with a His tag (human) (UniProt P11362). Briefly: SPR.
For assay [3], the target named is Human FGFR1 D2-His6 (human) (UniProt P11362). Briefly: ELISA. For orientation: In an ELISA, binding on a coated surface is turned into a signal by an enzyme label.
The target of assay [4] is human FGFR1b-IIIb extracellular domain with a His tag (human). Briefly: ELISA.
Assay [5] deals with human FGFR1b-IIIc extracellular domain with a His tag (human) (UniProt P11362). Briefly: ELISA.
Assay [6] concerns the target Human FGFR1 D2-His6 (human) (UniProt P11362). Briefly: SPR (data not shown).
The target of assay [7] is human FGFR1b-IIIb extracellular domain with a His tag (human). Briefly: SPR (BIAcore), IgG format.

These are yes or no findings as the source states them, for the method shown. Some binding calls cover weakened binding; strength is not graded here.

B1: mAb #A08 (#A08 hit), anti-FGFR1 antibody (antibody, V domains shown)
VH: EVQLQESGPGLVKPSGTLSLTCAVSGGSISSNNWWSWVRQPPGKGLEWIGEIYHSGSTSYNPSLKSRVTISVDKSKNQFSLKLNSVTAADTAVYYCARGTDWFDPWGQGTLVTVSS
VL: QAVLTQPPSVSVAPGQTARITCGGNNIGSESVHWYQQKPGQAPVLVVYDDSDRPSGIPERFSGSNSGNTATLTISRVEAGDEADYYCQVWDSTSDHRVFGGGTKLTVL
In the case of B1, the binding entry in assay [1], in assay [2], in assay [3], in assay [4], in assay [5] and in assay [6] was “binds” throughout.

B2: clone #G04 as IgG (bivalent) (antibody, V domains shown)
VH: QVQLQESGPGLVKPSGTLSLTCAVSGGSISSNNWWSWVRQPPGKGLEWIGEIYHSGSTSYNPSLKSRVTISVDKSKNQFSLKLSSVTAADTAVYYCARGTDWYDLWGQGTLVTVSS
VL: SYVLTQPPSVSVAPGQTARITCGGNNIGSESVHWYQQKPGQAPVLVVYDDSDRPSGIPERFSGSNSGNTATLTISRVEAGDEADYYCQVWDSTSDHRVFGGGTKLTVLG
Take B2: the binding entry in assay [7] was “binds”.

B3: clone #D02 as IgG (bivalent) (antibody, V domains shown)
VH: QVQLQESGPGLVKPSGTLSLTCAVSGGSISSNNWWSWVRQPPGKGLEWIGEIYHSGSTSYNPSLKSRVTISVDKSKNQFSLKLSSVTAADTAVYYCARGTDWIDTWGQGTLVTVSS
VL: SYVLTQPPSVSVAPGQTARITCGGNNIGSESVHWYQQKPGQAPVLVVYDDSDRPSGIPERFSGSNSGNTATLTISRVEAGDEADYYCQVWDSTSDHRVFGGGTKLTVLG
On to B3, for which the binding result in assay [7] is reported as “binds”.
